From patent publication US5770593A, “Method of determining a pharmaceutical combination preparations for use in anti-neoplastic therapy” (Boehringer Mannheim GmbH, priority 1988, dated 1998) come the findings set out here.

SMILES strings stand for the structures. Read-outs that look alike come from different tables or passages of the source.

In one assay the target is protein kinase C. The experiment in a line: Inhibition of protein kinase C (PK-C): in vitro method, 32P incorporation into H1 histone. It counts as biochemical, rat. As to the method: b) Inhibition of protein kinase C (PK-C): in vitro method.
However, to the extracts was additionally added 1 mM phenylmethanesulphonyl chloride, 20 μg./ml. leupeptin and 2 μg./ml. aprotinin. […] 1,2-s,n-diolein. The reaction time was 10 minutes at 32° C. The enzyme reaction was stopped by the addition of 1 ml. 20% trichloroacetic acid (w/v). The protein was precipitated out on Whatman GF/F filter paper and counted with the help of a liquid scintillation counter.
Quercetin was solubilised in dimethyl sulphoxide (DMSO). For the batch mixing, the solution in DMSO was made up to a DMSO end concentration of 1%. An equivalent amount of pure DMSO was added to the control groups. The influence of quercetin on the cell multiplication was investigated by the addition of the active material in DMSO to the culture medium up to an end concentration of 0.1%. The cells were cultured in the presence of the active material for 48 hours. The control group only received pure DMSO.

The next assay relates to Walker carcinoma cells. Kind of assay: Inhibition of multiplication of Walker cells (cell proliferation), single active material or combination, Chou and Talalay analysis. The class given is cell-based. The conditions noted are these: Rattus norvegicus.

`CC/C(=C(\c1ccccc1)c1ccc(OCCN(C)C)cc1)c1ccccc1` [tamoxifen]: the IC50 at protein kinase C (Table 1, 50% inhibition of the protein kinase C, read-out: inhibition of the protein kinase C IC50) was determined as 11.2 µM; at protein kinase C (protein kinase C enriched from Walker cells, 10 minutes at 32° C., pH 7.4, read-out: IC50, inhibition of protein kinase C (Examples 2-6)) it was 11.2 µM; with Walker carcinoma cells (48 h, read-out: IC50 cell proliferation in combination with cis-DDP), 2.24 µM; with Walker carcinoma cells (Table 1, single active material, 48 hours, read-out: IC50 cell proliferation) it was 12.4 µM.
